Data reported in the supplement of paper PMC10849652.
The list shows a part of the results.

Protein sequences, listed by entry. Tags and fused reporters are not part of them. Lines headed by an entry give the natural chain unless they say otherwise; changes in a name come on top.
UniProt O14548: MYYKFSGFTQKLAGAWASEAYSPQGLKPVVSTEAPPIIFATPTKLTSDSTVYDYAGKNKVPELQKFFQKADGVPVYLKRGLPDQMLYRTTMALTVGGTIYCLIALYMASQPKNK
UniProt Q7KZN9: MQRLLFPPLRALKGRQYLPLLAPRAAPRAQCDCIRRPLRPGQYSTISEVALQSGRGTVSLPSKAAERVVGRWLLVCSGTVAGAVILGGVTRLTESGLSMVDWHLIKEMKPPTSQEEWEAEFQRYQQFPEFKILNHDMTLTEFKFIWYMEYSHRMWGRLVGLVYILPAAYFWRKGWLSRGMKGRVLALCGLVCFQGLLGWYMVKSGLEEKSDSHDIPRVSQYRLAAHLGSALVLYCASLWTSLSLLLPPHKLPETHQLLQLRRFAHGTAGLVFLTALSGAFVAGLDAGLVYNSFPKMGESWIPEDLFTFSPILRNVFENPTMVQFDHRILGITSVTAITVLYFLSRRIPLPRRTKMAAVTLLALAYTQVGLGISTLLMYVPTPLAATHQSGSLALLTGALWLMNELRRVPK
UniProt P13073, whole entry, looked up: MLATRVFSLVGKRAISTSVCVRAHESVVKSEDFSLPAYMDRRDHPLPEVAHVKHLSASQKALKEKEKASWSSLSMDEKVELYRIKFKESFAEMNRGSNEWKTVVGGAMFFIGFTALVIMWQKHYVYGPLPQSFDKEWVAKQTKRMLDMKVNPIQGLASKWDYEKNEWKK
UniProt Q9BXS0: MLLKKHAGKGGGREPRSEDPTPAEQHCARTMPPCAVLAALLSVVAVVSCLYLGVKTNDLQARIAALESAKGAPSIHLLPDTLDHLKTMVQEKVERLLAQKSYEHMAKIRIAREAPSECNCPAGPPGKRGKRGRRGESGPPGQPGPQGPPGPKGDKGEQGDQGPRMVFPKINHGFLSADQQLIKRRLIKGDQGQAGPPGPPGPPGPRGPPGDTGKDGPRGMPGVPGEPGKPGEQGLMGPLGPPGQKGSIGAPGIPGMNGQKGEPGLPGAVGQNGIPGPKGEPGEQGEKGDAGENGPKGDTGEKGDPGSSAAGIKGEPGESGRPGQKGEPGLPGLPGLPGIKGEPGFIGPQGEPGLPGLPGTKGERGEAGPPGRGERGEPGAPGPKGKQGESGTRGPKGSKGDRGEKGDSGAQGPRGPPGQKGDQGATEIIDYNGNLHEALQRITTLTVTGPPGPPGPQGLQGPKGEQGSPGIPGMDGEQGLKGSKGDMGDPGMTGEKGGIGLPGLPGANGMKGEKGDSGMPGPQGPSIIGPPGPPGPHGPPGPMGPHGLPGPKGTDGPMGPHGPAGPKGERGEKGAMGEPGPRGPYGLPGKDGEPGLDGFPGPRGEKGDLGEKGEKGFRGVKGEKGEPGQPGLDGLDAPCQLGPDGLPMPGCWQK
UniProt P14854, whole entry, looked up: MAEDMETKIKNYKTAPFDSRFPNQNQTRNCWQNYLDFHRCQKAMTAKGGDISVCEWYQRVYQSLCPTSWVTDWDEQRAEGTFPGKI
UniProt Q49B96: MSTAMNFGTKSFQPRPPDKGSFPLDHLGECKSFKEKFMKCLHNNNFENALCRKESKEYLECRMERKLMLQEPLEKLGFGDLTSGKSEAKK
UniProt P31146: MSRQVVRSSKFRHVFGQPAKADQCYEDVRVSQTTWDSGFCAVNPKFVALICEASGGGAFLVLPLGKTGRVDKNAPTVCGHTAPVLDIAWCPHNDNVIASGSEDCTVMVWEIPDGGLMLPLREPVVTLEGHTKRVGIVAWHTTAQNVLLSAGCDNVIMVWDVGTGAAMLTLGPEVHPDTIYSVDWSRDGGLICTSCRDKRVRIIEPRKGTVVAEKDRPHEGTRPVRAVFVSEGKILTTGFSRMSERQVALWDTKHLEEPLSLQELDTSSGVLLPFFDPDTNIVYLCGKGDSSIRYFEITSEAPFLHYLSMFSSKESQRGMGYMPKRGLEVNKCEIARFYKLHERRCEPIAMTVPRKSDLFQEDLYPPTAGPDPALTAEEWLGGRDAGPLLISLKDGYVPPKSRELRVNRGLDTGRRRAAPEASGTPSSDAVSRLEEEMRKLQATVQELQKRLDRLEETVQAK
UniProt Q9GZQ3, whole entry, looked up: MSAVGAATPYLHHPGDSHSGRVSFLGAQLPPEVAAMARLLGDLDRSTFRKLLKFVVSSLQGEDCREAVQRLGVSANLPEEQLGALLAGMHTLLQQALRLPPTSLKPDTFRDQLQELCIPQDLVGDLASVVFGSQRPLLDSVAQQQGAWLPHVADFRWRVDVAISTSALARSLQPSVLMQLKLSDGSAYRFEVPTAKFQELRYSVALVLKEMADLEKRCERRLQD
UniProt P55060: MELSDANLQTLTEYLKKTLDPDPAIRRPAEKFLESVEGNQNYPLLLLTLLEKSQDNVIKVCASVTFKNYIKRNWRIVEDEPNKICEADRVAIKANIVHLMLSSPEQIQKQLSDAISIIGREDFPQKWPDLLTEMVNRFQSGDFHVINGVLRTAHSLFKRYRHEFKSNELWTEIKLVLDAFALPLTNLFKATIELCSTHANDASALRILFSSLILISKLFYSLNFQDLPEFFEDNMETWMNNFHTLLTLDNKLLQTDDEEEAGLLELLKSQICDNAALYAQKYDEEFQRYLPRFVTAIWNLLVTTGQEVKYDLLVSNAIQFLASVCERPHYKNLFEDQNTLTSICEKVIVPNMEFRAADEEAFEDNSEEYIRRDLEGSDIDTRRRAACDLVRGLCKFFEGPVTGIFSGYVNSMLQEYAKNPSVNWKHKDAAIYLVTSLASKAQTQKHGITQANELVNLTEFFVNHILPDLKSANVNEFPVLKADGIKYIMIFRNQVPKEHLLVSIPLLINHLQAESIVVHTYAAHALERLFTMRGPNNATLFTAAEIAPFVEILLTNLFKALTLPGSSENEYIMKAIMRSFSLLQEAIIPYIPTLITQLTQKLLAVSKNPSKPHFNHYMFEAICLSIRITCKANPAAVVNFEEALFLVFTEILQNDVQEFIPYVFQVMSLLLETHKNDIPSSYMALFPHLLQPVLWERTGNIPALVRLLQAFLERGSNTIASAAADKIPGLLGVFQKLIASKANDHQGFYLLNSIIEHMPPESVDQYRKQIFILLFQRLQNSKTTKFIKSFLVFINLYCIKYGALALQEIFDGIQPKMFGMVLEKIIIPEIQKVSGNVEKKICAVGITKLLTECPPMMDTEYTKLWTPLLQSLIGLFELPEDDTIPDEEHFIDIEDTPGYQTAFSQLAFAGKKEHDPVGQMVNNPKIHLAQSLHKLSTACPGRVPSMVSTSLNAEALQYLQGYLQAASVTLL
UniProt Q8N752: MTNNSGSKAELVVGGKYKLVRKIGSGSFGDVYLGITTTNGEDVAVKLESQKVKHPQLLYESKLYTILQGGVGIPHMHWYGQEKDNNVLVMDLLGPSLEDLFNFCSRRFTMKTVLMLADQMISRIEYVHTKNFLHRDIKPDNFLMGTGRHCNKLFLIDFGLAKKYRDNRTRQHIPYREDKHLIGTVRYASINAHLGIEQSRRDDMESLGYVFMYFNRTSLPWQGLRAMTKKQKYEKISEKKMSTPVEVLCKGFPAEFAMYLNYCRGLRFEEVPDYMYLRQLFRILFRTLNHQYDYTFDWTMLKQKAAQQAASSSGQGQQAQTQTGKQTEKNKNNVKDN
UniProt P46109: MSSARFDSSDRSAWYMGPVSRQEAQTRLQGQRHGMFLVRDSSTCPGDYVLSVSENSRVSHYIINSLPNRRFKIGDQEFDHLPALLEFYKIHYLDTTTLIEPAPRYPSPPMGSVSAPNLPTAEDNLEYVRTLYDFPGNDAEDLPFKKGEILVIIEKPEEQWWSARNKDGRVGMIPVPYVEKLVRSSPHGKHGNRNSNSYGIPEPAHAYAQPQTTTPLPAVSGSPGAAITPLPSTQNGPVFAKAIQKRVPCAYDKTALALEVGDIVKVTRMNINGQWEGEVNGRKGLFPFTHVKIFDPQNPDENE
UniProt P61201: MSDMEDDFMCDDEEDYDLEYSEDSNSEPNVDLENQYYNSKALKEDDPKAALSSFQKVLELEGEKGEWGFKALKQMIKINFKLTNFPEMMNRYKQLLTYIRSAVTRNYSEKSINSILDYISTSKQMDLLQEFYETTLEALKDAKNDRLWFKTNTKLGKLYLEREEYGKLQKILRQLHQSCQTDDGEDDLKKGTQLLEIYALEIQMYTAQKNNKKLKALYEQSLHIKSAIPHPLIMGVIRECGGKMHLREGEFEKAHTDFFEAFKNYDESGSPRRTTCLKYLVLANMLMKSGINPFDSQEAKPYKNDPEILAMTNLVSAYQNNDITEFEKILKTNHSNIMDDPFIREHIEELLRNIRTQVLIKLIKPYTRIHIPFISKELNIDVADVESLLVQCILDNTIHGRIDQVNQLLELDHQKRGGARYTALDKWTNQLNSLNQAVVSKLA
UniProt Q9UBL6: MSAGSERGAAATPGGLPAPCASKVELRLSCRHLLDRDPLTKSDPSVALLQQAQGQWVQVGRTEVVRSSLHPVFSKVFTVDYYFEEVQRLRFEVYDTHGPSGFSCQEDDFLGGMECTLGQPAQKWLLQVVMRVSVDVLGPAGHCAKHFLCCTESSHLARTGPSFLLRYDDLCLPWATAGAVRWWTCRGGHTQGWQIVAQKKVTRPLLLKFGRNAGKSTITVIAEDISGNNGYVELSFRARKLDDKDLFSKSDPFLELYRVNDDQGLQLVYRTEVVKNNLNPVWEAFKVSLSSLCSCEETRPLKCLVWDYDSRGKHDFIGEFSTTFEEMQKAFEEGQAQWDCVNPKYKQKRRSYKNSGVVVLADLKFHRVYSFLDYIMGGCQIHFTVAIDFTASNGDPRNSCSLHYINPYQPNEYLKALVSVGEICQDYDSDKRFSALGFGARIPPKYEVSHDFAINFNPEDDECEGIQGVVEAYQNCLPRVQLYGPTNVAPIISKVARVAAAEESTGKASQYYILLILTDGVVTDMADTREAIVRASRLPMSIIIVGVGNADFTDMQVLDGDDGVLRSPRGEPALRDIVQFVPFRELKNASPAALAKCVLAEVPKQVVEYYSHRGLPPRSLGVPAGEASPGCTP
UniProt Q9H3G5: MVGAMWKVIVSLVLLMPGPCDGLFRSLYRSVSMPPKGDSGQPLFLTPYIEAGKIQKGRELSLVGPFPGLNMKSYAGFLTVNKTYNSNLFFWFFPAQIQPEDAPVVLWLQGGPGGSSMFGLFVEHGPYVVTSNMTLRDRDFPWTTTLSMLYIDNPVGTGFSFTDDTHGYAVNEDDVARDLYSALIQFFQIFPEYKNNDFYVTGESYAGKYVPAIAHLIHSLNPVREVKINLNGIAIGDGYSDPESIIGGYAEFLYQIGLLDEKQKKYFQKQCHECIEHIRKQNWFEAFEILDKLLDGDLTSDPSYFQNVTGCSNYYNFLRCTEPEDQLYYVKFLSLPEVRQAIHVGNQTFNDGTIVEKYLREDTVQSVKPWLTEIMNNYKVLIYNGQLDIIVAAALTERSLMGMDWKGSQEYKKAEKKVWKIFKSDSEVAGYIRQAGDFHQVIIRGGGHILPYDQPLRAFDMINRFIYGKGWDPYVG
UniProt P53618: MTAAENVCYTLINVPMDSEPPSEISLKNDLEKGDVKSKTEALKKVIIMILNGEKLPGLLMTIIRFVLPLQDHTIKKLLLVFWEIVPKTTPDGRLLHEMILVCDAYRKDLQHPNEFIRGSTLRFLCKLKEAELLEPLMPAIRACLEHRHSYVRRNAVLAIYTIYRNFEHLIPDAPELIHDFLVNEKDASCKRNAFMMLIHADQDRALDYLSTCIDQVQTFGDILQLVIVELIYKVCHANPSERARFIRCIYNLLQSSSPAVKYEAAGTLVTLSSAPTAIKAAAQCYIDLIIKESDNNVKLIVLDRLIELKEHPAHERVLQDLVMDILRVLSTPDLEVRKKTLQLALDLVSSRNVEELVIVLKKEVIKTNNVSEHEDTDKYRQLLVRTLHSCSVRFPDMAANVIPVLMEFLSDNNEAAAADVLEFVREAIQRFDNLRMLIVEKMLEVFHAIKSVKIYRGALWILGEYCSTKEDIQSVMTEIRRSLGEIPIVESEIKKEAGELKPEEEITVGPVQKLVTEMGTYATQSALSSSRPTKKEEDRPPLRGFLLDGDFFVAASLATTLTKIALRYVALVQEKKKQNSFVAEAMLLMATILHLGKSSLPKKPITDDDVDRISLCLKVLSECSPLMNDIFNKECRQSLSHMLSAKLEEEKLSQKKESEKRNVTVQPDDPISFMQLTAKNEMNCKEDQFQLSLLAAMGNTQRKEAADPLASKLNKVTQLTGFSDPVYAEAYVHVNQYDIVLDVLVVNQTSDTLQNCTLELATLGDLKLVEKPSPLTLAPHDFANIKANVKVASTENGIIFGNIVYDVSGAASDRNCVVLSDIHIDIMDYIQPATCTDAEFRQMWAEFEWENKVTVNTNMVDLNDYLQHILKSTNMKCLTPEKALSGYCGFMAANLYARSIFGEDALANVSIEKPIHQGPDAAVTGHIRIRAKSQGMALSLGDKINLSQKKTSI
UniProt P12074, whole entry, looked up: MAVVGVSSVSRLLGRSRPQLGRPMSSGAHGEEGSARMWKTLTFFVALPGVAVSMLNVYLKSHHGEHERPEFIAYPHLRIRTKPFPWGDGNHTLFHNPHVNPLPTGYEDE
UniProt Q9P021, whole entry, looked up: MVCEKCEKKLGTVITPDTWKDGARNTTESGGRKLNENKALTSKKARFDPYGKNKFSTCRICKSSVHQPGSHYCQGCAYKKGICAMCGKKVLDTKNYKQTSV

Columns and labels:
Test in all cases: log2 fold change, soluble protein after heating vs DMSO (PISA); higher = thermal stabilisation; K562 cells, 10 uM, 30 min; active = over 0.2 and 3.5 SD of the protein, either way, in both replicates (recomputed)
[1] = compound: C1=CC=C(C=C1)[C@H](COC2=CC3=C(C=C2)NC(=O)N3)NC(=O)C4=CC=CN(C4=O)CC5=CC(=C(C=C5)F)F
How it was run: (§1)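 K562 cells (2×10^6 cells/mL) were treated with 10 μM compound for 30 min, and aliquots were heated for 3 min over 48°C-58°C. Pooled aliquots were extracted in PBS with 0.5% NP-40 at 4°C, and the supernatant after 21,000xg for 90 min was measured by TMTpro 16plex LC-MS/MS with channel sums equalised. Reported thermal stability, relative to control samples and from duplicates, is a log2 fold change.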

[2] = compound: CC1=C(SC2=C1C(=N[C@H](C3=NN=C(N32)C)CC(=O)N)C4=CC=C(C=C4)Cl)C
How it was run: as §1

[3] = compound: CC1=C2C(=CC=C1)N=C(N(C2=O)C3=CC=CC=C3C)CN4C=NC5=C(N=CN=C54)N
How it was run: as §1

[4] = compound: Cc1sc2c(c1C)C(c1ccc(Cl)cc1)=N[C@@H](CC(=O)OC(C)(C)C)c1nnc(C)n1-2
How it was run: as §1

[5] = compound: c1ccc([C@@H]2C[C@H]2NC2CCNCC2)cc1
How it was run: as §1

Measured: log2 fold change

COX7A2L (UniProt O14548)
inactive: [1] 0.05 | [2] 0.115 | [3] 0.099 | [4] -0.102 | [5] 0.04

COX15 (UniProt Q7KZN9)
inactive: [1] -0.027 | [2] 0.071 | [3] 0.036 | [4] -0.013 | [5] -0.02

CREM isoform 1 (UniProt Q03060)
inactive: [1] 0.131 | [2] 0.066 | [3] 0.032 | [4] 0.187 | [5] -0.151

COX4I1 (UniProt P13073)
inactive: [1] 0.032 | [2] -0.016 | [3] -0.031 | [4] 0.004 | [5] 0.005

CRISP3 isoform 3 (UniProt P54108)
inactive: [1] -0.019

COL25A1 (UniProt Q9BXS0)
inactive: [1] 0.058

COX6B1 (UniProt P14854)
inactive: [1] 0.007 | [2] 0.141 | [3] 0.003 | [4] -0.153 | [5] -0.054

COX19 (UniProt Q49B96)
inactive: [1] -0.014 | [2] 0.002 | [3] 0.02 | [4] -0.062 | [5] -0.003

CPSF1 (UniProt Q10570)
inactive: [1] -0.012 | [2] -0.049 | [3] -0.017 | [4] 0.132 | [5] 0.006

CPNE1 (UniProt Q99829)
inactive: [1] -0.013 | [2] -0.005 | [3] 0.003 | [4] 0.022 | [5] 0.016

CRYZ (UniProt Q08257)
inactive: [1] 0.025 | [2] 0.026 | [3] 0.059 | [4] -0.046 | [5] -0.012

CPEB4 (UniProt Q17RY0)
inactive: [1] 0.011 | [2] -0.069 | [3] -0.113 | [4] 0.016 | [5] -0.039

CPOX (UniProt P36551)
inactive: [1] -0.007 | [2] 0 | [3] 0.056 | [4] -0.021 | [5] 0.027

COPS7B (UniProt Q9H9Q2)
inactive: [1] 0.003 | [2] -0.026 | [3] -0.032 | [4] 0.04 | [5] -0.1

CPQ (UniProt Q9Y646)
inactive: [1] 0.045 | [2] -0.077 | [3] -0.078 | [4] -0.031 | [5] 0.084

Looked up one by one from the list above (four):
CRYZ (UniProt Q08257)
inactive: [1] 0.025 | [2] 0.026 | [3] 0.059 | [4] -0.046 | [5] -0.012

CPSF1 (UniProt Q10570)
inactive: [1] -0.012 | [2] -0.049 | [3] -0.017 | [4] 0.132 | [5] 0.006

CPOX (UniProt P36551)
inactive: [1] -0.007 | [2] 0 | [3] 0.056 | [4] -0.021 | [5] 0.027

CPQ (UniProt Q9Y646)
inactive: [1] 0.045 | [2] -0.077 | [3] -0.078 | [4] -0.031 | [5] 0.084

(list continues)

CPNE3 (UniProt O75131)
inactive: [1] -0.02 | [2] -0.031 | [3] -0.021 | [4] 0.01 | [5] 0.061

CRK (UniProt P46108)
inactive: [1] 0 | [2] 0.013 | [3] 0.005 | [4] 0.028 | [5] -0.01

CPNE2 (UniProt Q96FN4)
inactive: [1] -0.065 | [2] 0.036 | [3] 0 | [4] 0.088 | [5] -0.037

CSDE1 isoform 4 (UniProt O75534)
inactive: [1] 0.003 | [2] -0.088 | [3] -0.001 | [4] 0.194 | [5] 0.021

CORO1A (UniProt P31146)
inactive: [1] 0.007 | [2] 0.065 | [3] 0.045 | [4] -0.024 | [5] -0.04

COPA isoform 2 (UniProt P53621)
inactive: [1] -0.017 | [2] 0.032 | [3] 0.038 | [4] -0.012 | [5] -0.011

COMMD5 (UniProt Q9GZQ3)
inactive: [1] -0.02 | [2] 0.09 | [3] -0.059 | [4] -0.067 | [5] -0.011

CSE1L (UniProt P55060)
inactive: [1] -0.024 | [2] 0.063 | [3] 0.033 | [4] -0.028 | [5] -0.009

COPS6 (UniProt Q7L5N1)
inactive: [1] -0.028 | [2] 0.02 | [3] -0.028 | [4] -0.003 | [5] 0.016

CRELD1 isoform 2 (UniProt Q96HD1)
inactive: [1] -0.147 | [2] -0.01 | [3] 0.24 | [4] 0.139 | [5] 0.042

CSNK1A1L (UniProt Q8N752)
inactive: [1] -0.056 | [2] -0.169 | [3] -0.033 | [4] 0.042 | [5] 0.216

CORO2A (UniProt Q92828)
inactive: [1] -0.057 | [2] -0.041 | [3] 0.061 | [4] 0.045 | [5] 0.071

COQ3 (UniProt Q9NZJ6)
inactive: [1] -0.023 | [2] 0.135 | [3] 0.028 | [4] -0.167 | [5] 0.07

COQ7 (UniProt Q99807)
inactive: [1] -0.038 | [2] 0.016 | [3] 0.029 | [4] 0.014 | [5] 0.048

CRKL (UniProt P46109)
inactive: [1] 0.01 | [2] 0.041 | [3] 0.032 | [4] 0.016 | [5] -0.002

COPS2 (UniProt P61201)
inactive: [1] 0.014 | [2] 0.036 | [3] 0.023 | [4] -0.029 | [5] 0.005

CRLF3 (UniProt Q8IUI8)
inactive: [1] -0.03 | [2] 0.045 | [3] 0.087 | [4] 0.088 | [5] -0.036

COX5A (UniProt P20674)
inactive: [1] 0.016 | [2] 0.059 | [3] 0.037 | [4] -0.075 | [5] -0.043

CPEB2 isoform 9 (UniProt Q7Z5Q1)
inactive: [1] -0.075 | [2] 0.009 | [3] -0.296 | [4] -0.108 | [5] -0.012

COMMD9 (UniProt Q9P000)
inactive: [1] -0.088 | [2] 0.145 | [3] -0.011 | [4] -0.076 | [5] -0.092

COL6A1 (UniProt P12109)
inactive: [1] 0 | [2] 0.096 | [3] 0.138 | [4] 0.032 | [5] -0.035

CPNE7 (UniProt Q9UBL6)
inactive: [1] 0.001 | [2] 0.103 | [3] 0.084 | [4] -0.031 | [5] -0.043

CPVL (UniProt Q9H3G5)
inactive: [1] -0.011 | [2] 0.077 | [3] 0.135 | [4] 0.067 | [5] 0.056

CORO7 isoform 3 (UniProt P57737)
inactive: [1] -0.024 | [2] -0.017 | [3] 0.015 | [4] 0.01 | [5] -0.001

CRTAP (UniProt O75718)
inactive: [1] 0.057 | [2] -0.063 | [3] 0.079 | [4] -0.013 | [5] -0.037

CPED1 (UniProt A4D0V7)
inactive: [1] 0.023 | [2] -0.036 | [3] 0.039 | [4] 0.004 | [5] 0.04

CRYM-AS1 (UniProt A6NIL9)
inactive: [1] -0.295 | [2] 0.037 | [3] 0.297 | [4] -0.201 | [5] -0.002

COPB1 (UniProt P53618)
inactive: [1] -0.018 | [2] 0.036 | [3] 0.017 | [4] -0.013 | [5] -0.001

COPB2 (UniProt P35606)
inactive: [1] -0.01 | [2] 0.062 | [3] 0.016 | [4] -0.005 | [5] -0.027

COPS3 (UniProt Q9UNS2)
inactive: [1] 0.011 | [2] 0.001 | [3] 0 | [4] -0.007 | [5] -0.005

CRTC3 (UniProt Q6UUV7)
inactive: [1] -0.083 | [2] 0.044 | [3] -0.065 | [4] 0.004 | [5] 0.034

CREB1 (UniProt P16220)
inactive: [1] 0.016 | [2] 0.016 | [3] -0.024 | [4] -0.012 | [5] -0.041

CPPED1 (UniProt Q9BRF8)
inactive: [1] -0.063 | [2] -0.009 | [3] 0.016 | [4] 0.018 | [5] 0.012

CPT1A (UniProt P50416)
inactive: [1] 0.095 | [2] 0.011 | [3] 0.125 | [4] -0.022 | [5] -0.118

COMTD1 (UniProt Q86VU5)
inactive: [1] -0.048 | [2] 0.027 | [3] 0.087 | [4] -0.026 | [5] -0.023

COX6A1 (UniProt P12074)
inactive: [1] 0.101 | [2] 0.077 | [3] 0.105 | [4] -0.195 | [5] 0.05

CRIPT (UniProt Q9P021)
inactive: [1] 0.024 | [2] -0.025 | [3] 0.122 | [4] -0.009 | [5] 0.024

COL1A2 (UniProt P08123)
inactive: [1] 0.133 | [2] -0.042 | [3] 0.134 | [4] 0.06 | [5] 0.051

CRYZL1 (UniProt O95825)
inactive: [1] 0.01 | [2] -0.002 | [3] 0.016 | [4] 0.023 | [5] 0.027
